The source of these data is paper PMC7819943, “Rice protein-binding microarrays: a tool to detect cis-acting elements near promoter regions in rice”.

The other results are listed elsewhere or left out.

The target of this test is T1, OsSMF1 (Oryza sativa, UniProt Q6ZLB0 1-436).
T1 sequence: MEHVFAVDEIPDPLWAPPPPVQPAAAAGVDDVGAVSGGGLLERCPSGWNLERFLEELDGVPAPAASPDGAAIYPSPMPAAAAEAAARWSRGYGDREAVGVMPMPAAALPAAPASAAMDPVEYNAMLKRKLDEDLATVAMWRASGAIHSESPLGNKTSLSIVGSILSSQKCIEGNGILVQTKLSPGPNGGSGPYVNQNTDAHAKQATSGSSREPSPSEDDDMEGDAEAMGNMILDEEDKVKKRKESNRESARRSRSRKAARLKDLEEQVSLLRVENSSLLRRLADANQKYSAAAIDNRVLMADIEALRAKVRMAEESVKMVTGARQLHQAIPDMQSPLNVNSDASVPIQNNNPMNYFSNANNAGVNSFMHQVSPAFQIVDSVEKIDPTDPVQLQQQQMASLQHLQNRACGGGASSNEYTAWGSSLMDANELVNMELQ
As to the kind of experiment: protein-binding microarray (RPBM); PBS, 2% BSA, 51.3 ng/ul salmon testes DNA, 50 uM zinc acetate, 200 nM TF, 25 C, 1 h; high values mean tight binding. The conditions noted are these: protein: recombinant; tags: N-terminal polyhistidine and DsRed monomer fusion (pET32a); chain copies: 2; label: CyDye5-dUTP incorporated in the synthesized complementary strand; 3' TTTTT single-stranded linker to array surface; dsDNA, one strand shown. The essentials: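 An Axon 4000B scanner gave the binding signal as per-feature fluorescence intensity in arbitrary units. This followed washing of a custom Agilent array that had been incubated for 1 h at 25 °C with 200 nM protein in PBS, 2% BSA, salmon testes DNA and 50 µM zinc acetate. The proteins were transcription factors fused at the N-terminus to polyhistidine and DsRed, expressed in E. coli BL21-CodonPlus and purified on Ni–NTA.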
With “TTATGGCACCACGTGGACCAATCAAATGCTGGCAGAACCGCGGAGTCACCTAGTGCAG”, the binding signal was 7040 fluorescence intensity (a.u.).

In the case of “GTACAGCGGCGTCAGCGAGTACGCACGCACGCGCATGCTGCGGAGTCACCTAGTGCAG”, the binding signal was 4530 fluorescence intensity (a.u.).

Take “GGCGAGTGAGTGGAGATGCACGTGTTGCTGCTTGCATGCTCGGAGTCACCTAGTGCAG”: the binding signal was 4110 fluorescence intensity (a.u.).

For “TCGTCTTGATATGCAAGCATACGTGGCATCCTAACCGGTGCGGAGTCACCTAGTGCAG”, the binding signal was 20600 fluorescence intensity (a.u.).

Regarding “TAGTACTGTTATGGTACCAGCAATCTACCACGTCGATGTCCGGAGTCACCTAGTGCAG”, the binding signal was 6230 fluorescence intensity (a.u.).

Turning to “GCTTTCTTCGTGGATGCGGACCTGACGCAACCTTTTGTCCCGGAGTCACCTAGTGCAG”, the binding signal was 3420 fluorescence intensity (a.u.).

“CCTTTGAAGCAATCCTACAATCTAAATGACTCATATAGGACGGAGTCACCTAGTGCAG”: the binding signal was 4800 fluorescence intensity (a.u.).

“GCCGCGCGCCGCCGAGGCCGTCCTCCGCACCCACGACCTCCGGAGTCACCTAGTGCAG”: the binding signal is 3140 fluorescence intensity (a.u.).

Regarding “AGAAATGCGAGAATGAGTATGACGTATGCAGGGCAATGACCGGAGTCACCTAGTGCAG”, the binding signal is 6170 fluorescence intensity (a.u.).

For “CTTTTAGGCTGACGCGGAGCCCATCCGGCCCAAATCAAGCCGGAGTCACCTAGTGCAG”, the binding signal is 5850 fluorescence intensity (a.u.).

“ACATGTGGGCTTGAGTCTCCGACTCATAACAGATGATCGTCGGAGTCACCTAGTGCAG”: the binding signal is 27800 fluorescence intensity (a.u.).

On to “CTTGATCTGCATTCTTCATCTTCTGTCTCAACAAAATAATCGGAGTCACCTAGTGCAG”, for which the binding signal was 3420 fluorescence intensity (a.u.).

“CGACAGCGTTACACGTCGTGTCCTCCTTGGGAGCGTCGCTCGGAGTCACCTAGTGCAG”: the binding signal was 5180 fluorescence intensity (a.u.).

As to “CGTCAGTTGTCACGTCACCGGCGGCCGCACGCATCGCACCCGGAGTCACCTAGTGCAG”, the binding signal is 7980 fluorescence intensity (a.u.).

For the sequence “CGCTCGCCTTCTAGGCCCAAGCCCAATATCCCTCAAATATCGGAGTCACCTAGTGCAG”, the binding signal was 3420 fluorescence intensity (a.u.).

Consider “TTCTCAACCCAATGACTAGGATGGTGTCCATAACATTAAACGGAGTCACCTAGTGCAG”, for which the binding signal was 3740 fluorescence intensity (a.u.).

As to “ATCCTCATCCCACCAAAATTCCCATGTCTTCTAACCAAACCGGAGTCACCTAGTGCAG”, the binding signal was 17800 fluorescence intensity (a.u.).

Turning to “AAACCAATACTGACACCTCTGCCTCGCAACGCGGCGCGCGCGGAGTCACCTAGTGCAG”, the binding signal was 3850 fluorescence intensity (a.u.).

Regarding “CCGCCATCTCCACCTCCGCCGCCGCGTCCAACTCCACCTTCGGAGTCACCTAGTGCAG”, the binding signal is 3390 fluorescence intensity (a.u.).

On to “TCGACAAAACACAATAAACAATCAACCACGTACCAAGTTGCGGAGTCACCTAGTGCAG”, for which the binding signal is 3210 fluorescence intensity (a.u.).

In the case of “TATACTCCCTGACGTCAAACTAACACATACATAATCTTCTCGGAGTCACCTAGTGCAG”, the binding signal is 6240 fluorescence intensity (a.u.).

For “TGACACCGTCGCCACCTCGCCACCCATCCATTTCCATTGCCGGAGTCACCTAGTGCAG”, the binding signal was 3650 fluorescence intensity (a.u.).

In the case of “TCGGCGCCGCGCCGCGCCACGGAGGGTGTCACGAGACCGCCGGAGTCACCTAGTGCAG”, the binding signal is 4790 fluorescence intensity (a.u.).

With “TGTTCGCCACCAACCTCAAACCAACCAAGCAACCAACCCACGGAGTCACCTAGTGCAG”, the binding signal is 28800 fluorescence intensity (a.u.).

As to “TTATATATAGCCACACACGTCCTTGTCTAGTCCACTACACCGGAGTCACCTAGTGCAG”, the binding signal is 3480 fluorescence intensity (a.u.).

Take “AACCGAATCAAAGATACAGTCAACGAGTCATCGCAAGCAGCGGAGTCACCTAGTGCAG”: the binding signal was 4210 fluorescence intensity (a.u.).

As to “CTGTCACTGGAACGAGGCACACGTCAGAAGCACTCCCAAACGGAGTCACCTAGTGCAG”, the binding signal was 7700 fluorescence intensity (a.u.).

For “TCTATCTTTCTTTCTGATTTCTCATTAATTTCGCATCAAGCGGAGTCACCTAGTGCAG”, the binding signal is 4060 fluorescence intensity (a.u.).

“TCAGCTTGAGGTCCTAACACGTCTAATGAACAAGAAGTCGCGGAGTCACCTAGTGCAG”: the binding signal was 3720 fluorescence intensity (a.u.).

For the sequence “ACCTAGACGCTTCCTCGCCTGCTTATGTGTTCTGGAGCGACGGAGTCACCTAGTGCAG”, the binding signal was 4510 fluorescence intensity (a.u.).

For the sequence “ACTCCACCTCCTAGCACGGAAAATGACGCTACCCATTAATCGGAGTCACCTAGTGCAG”, the binding signal was 3340 fluorescence intensity (a.u.).

Take “ATCATGGTCTTTTGCCAATATGGTATGCCACATAGACGATCGGAGTCACCTAGTGCAG”: the binding signal is 3370 fluorescence intensity (a.u.).

As for “TACTATGCGACAGAGTGTGTTGTCATCACCATTAGCGTTGCGGAGTCACCTAGTGCAG”, the binding signal is 5420 fluorescence intensity (a.u.).

As to “GAACGAGGACTGGAGACCGGAAAATGGGCGCTGTCGTCAGCGGAGTCACCTAGTGCAG”, the binding signal is 3490 fluorescence intensity (a.u.).

In the case of “CACATTATATGGGGATGACTATGACTCCTAGTCGGTATGCCGGAGTCACCTAGTGCAG”, the binding signal is 3980 fluorescence intensity (a.u.).

Take “GCCGCCTCCGCGACAGGTCACCCTCTTCCCTTCCATCCAACGGAGTCACCTAGTGCAG”: the binding signal is 4080 fluorescence intensity (a.u.).

Take “CGCATCTGTCAAACTGTCAATGTGTCATTATATTGTGTGTCGGAGTCACCTAGTGCAG”: the binding signal was 5940 fluorescence intensity (a.u.).

Regarding “GTCAGTACACACACGCACAAATCATGAATCTATCATTACTCGGAGTCACCTAGTGCAG”, the binding signal was 31900 fluorescence intensity (a.u.).

For the sequence “CCGCGGACCGCGGTAACGCCTGACGTCTGCGTTTGGTGCTCGGAGTCACCTAGTGCAG”, the binding signal is 4740 fluorescence intensity (a.u.).

Regarding “CCGTGACATGCCACATCAACGCATGGAACAAGTTAAAGCTCGGAGTCACCTAGTGCAG”, the binding signal is 8000 fluorescence intensity (a.u.).

Regarding “GTCTGTTCACTTTGATGCCAAAATTTTGACAGGATTTCTTCGGAGTCACCTAGTGCAG”, the binding signal is 25000 fluorescence intensity (a.u.).

“GGTGGGTGCGCCTCGTGTACGCCGACTTCGCCGCCTTCTCCGGAGTCACCTAGTGCAG”: the binding signal was 4420 fluorescence intensity (a.u.).
